PubChem BioAssay AID1159578 – Peter MacCallum Cancer Centre – 2015
This is one part, drawn at random, of about 18,000 reagents. About 1,030 of all reagents (5.7%) count as active. 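Inactive calls also include pools with fewer than 3300 nuclei, whose migration was not assessed.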 Raw values are not corrected between plates. The numbers tell different reagents against one gene apart.

Aim: 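Genome-wide hunt for genes controlling movement of lymphatic endothelial cells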 (primary screen)
System: human lymphatic endothelial cells
Reagent: siRNA pool against human genes, 40 nM
Timing: 48 h after transfection
Detection: 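Cells stained with dye and imaged after a scratch; covered wound area and nuclei counted, duplicates averaged, migration set against mock wells and turned into a robust z-score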
Scale: migration robust z-score: higher = faster migration into the scratch; migration relative to mock: higher = more scratch area covered than mock; nuclei per well: higher = more cells in the well
Rule for the call: 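Migration changed when robust z exceeds 2 or falls below -2 and mean nuclei number is at least 3300; otherwise not called changed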
Calls: active = migration changed; inactive = no migration change, or too few cells

gene knocked down	pool no.	migration robust z-score	migration class with cell-count check	migration relative to mock	nuclei per well, duplicate mean	outcome
CYP4F22 (cytochrome P450 family 4 subfamily F member 22)	1	0.38	migration z between -2 and 2; enough cells	0.98	6262	inactive
AGAP4 (ArfGAP with GTPase domain, ankyrin repeat and PH domain 4)	1	-0.17	migration z between -2 and 2; enough cells	0.84	7134	inactive
AGAP4 (ArfGAP with GTPase domain, ankyrin repeat and PH domain 4)	2	0.3	migration z between -2 and 2; enough cells	0.96	7012	inactive
LARGE1 (LARGE xylosyl- and glucuronyltransferase 1)	1	-1.17	migration z between -2 and 2; enough cells	0.58	5566	inactive
POTEE (POTE ankyrin domain family member E)	1	-0.46	migration z between -2 and 2; enough cells	0.76	6559	inactive
MIDEAS (mitotic deacetylase associated SANT domain protein)	1	-0.05	migration z between -2 and 2; enough cells	0.88	6265	inactive
TRAF3IP2 (TRAF3 interacting protein 2)	1	-0.4	migration z between -2 and 2; enough cells	0.78	4526	inactive
KIFC1 (kinesin family member C1)	1	-0.94	migration z between -2 and 2; enough cells	0.62	4130	inactive
CD99 (CD99 molecule (Xg blood group))	1	1.62	migration z between -2 and 2; enough cells	1.3	5528	inactive
HFM1 (helicase for meiosis 1)	1	1.09	migration z between -2 and 2; enough cells	1.17	6650	inactive
ATP5ME (ATP synthase membrane subunit e)	1	-3.83	under 3300 nuclei; migration not judged	-0.11	2436	inactive
ELOF1 (elongation factor 1)	1	-1.08	migration z between -2 and 2; enough cells	0.6	6152	inactive
PPIP5K1 (diphosphoinositol pentakisphosphate kinase 1)	1	0.42	migration z between -2 and 2; enough cells	0.88	6799	inactive
POTED (POTE ankyrin domain family member D)	1	2.02	migration z above 2; enough cells	1.41	7102	active
RBPMS2 (RNA binding protein, mRNA processing factor 2)	1	0.32	migration z between -2 and 2; enough cells	0.97	6172	inactive
FAM13C (family with sequence similarity 13 member C)	1	0.58	migration z between -2 and 2; enough cells	1.04	5800	inactive
SHLD1 (shieldin complex subunit 1)	1	1.13	migration z between -2 and 2; enough cells	1.18	5657	inactive
FREM1 (FRAS1 related extracellular matrix 1)	1	1.43	migration z between -2 and 2; enough cells	1.25	6414	inactive
H4C6 (H4 clustered histone 6)	1	1.18	migration z between -2 and 2; enough cells	1.2	5622	inactive
TMED5 (transmembrane p24 trafficking protein 5)	1	0.78	migration z between -2 and 2; enough cells	1.08	3946	inactive
GNRH1 (gonadotropin releasing hormone 1)	1	-0.08	migration z between -2 and 2; enough cells	0.86	6632	inactive
FAM53B (family with sequence similarity 53 member B)	1	-0.15	migration z between -2 and 2; enough cells	0.84	5232	inactive
RASEF (RAS and EF-hand domain containing)	1	0.98	migration z between -2 and 2; enough cells	1.14	5544	inactive
COLEC10 (collectin subfamily member 10)	1	-0.52	migration z between -2 and 2; enough cells	0.75	6366	inactive
MC2R (melanocortin 2 receptor)	1	-0.05	migration z between -2 and 2; enough cells	0.8	5728	inactive
MKS1 (MKS transition zone complex subunit 1)	1	-1.03	migration z between -2 and 2; enough cells	0.62	6320	inactive
SEMA4C (semaphorin 4C)	1	-2.76	migration z below -2; enough cells	0.16	5020	active
ELK3 (ETS transcription factor ELK3)	1	-0.44	migration z between -2 and 2; enough cells	0.72	6012	inactive
SENP7 (SUMO specific peptidase 7)	1	0.32	migration z between -2 and 2; enough cells	0.86	4740	inactive
FCGR3A (Fc gamma receptor IIIa)	1	-0.57	migration z between -2 and 2; enough cells	0.7	3570	inactive
ZDHHC18 (zDHHC palmitoyltransferase 18)	1	0.57	migration z between -2 and 2; enough cells	1.04	5832	inactive
MYCBPAP (MYCBP associated protein)	1	0.66	migration z between -2 and 2; enough cells	1.06	4924	inactive
BIN1 (bridging integrator 1)	1	-0.77	migration z between -2 and 2; enough cells	0.68	6473	inactive
ZNF250 (zinc finger protein 250)	1	0.6	migration z between -2 and 2; enough cells	1.04	5086	inactive
TLR5 (toll like receptor 5)	1	-0.91	migration z between -2 and 2; enough cells	0.63	6303	inactive
LHFPL1 (LHFPL tetraspan subfamily member 1)	1	0.84	migration z between -2 and 2; enough cells	1.1	5046	inactive
RELL1 (RELT like 1)	1	0.42	migration z between -2 and 2; enough cells	1	5406	inactive
METTL23 (methyltransferase 23, arginine)	1	-1.04	migration z between -2 and 2; enough cells	0.62	5832	inactive
ACSL5 (acyl-CoA synthetase long chain family member 5)	1	0.52	migration z between -2 and 2; enough cells	0.9	4596	inactive
NFATC2IP (nuclear factor of activated T cells 2 interacting protein)	1	2.93	migration z above 2; enough cells	1.64	7290	active
CD40LG (CD40 ligand)	1	-0.44	migration z between -2 and 2; enough cells	0.77	6426	inactive
CNGA1 (cyclic nucleotide gated channel subunit alpha 1)	1	-0.88	migration z between -2 and 2; enough cells	0.64	6128	inactive
DCLK1 (doublecortin like kinase 1)	1	1.19	migration z between -2 and 2; enough cells	1.04	6510	inactive
CALML6 (calmodulin like 6)	1	-0.2	migration z between -2 and 2; enough cells	0.84	6259	inactive
UBE2R2 (ubiquitin conjugating enzyme E2 R2)	1	1.19	migration z between -2 and 2; enough cells	1.03	6038	inactive
GPAM (glycerol-3-phosphate acyltransferase, mitochondrial)	1	-1.09	migration z between -2 and 2; enough cells	0.6	4048	inactive
DOK2 (docking protein 2)	1	-1.82	migration z between -2 and 2; enough cells	0.42	6506	inactive
ZNF561 (zinc finger protein 561)	1	0.48	migration z between -2 and 2; enough cells	1.01	5476	inactive
MTCH1	1	0.61	migration z between -2 and 2; enough cells	1.04	5970	inactive
JAM2 (junctional adhesion molecule 2)	1	0.38	migration z between -2 and 2; enough cells	0.98	5652	inactive
CCL26 (C-C motif chemokine ligand 26)	1	1.32	migration z between -2 and 2; enough cells	1.23	4864	inactive
TRDN (triadin)	1	0.24	migration z between -2 and 2; enough cells	0.94	5284	inactive
CHST14 (carbohydrate sulfotransferase 14)	1	-1.69	migration z between -2 and 2; enough cells	0.48	4286	inactive
RHPN1 (rhophilin Rho GTPase binding protein 1)	1	0.18	migration z between -2 and 2; enough cells	0.93	5954	inactive
GRAMD2A (GRAM domain containing 2A)	1	0.78	migration z between -2 and 2; enough cells	1.08	7284	inactive
LAGE3 (L antigen family member 3)	1	-0.73	migration z between -2 and 2; enough cells	0.7	5185	inactive
STOML3 (stomatin like 3)	1	0.41	migration z between -2 and 2; enough cells	0.99	5266	inactive

Reformatted: results already given.
| gene knocked down | pool no. | migration robust z-score | migration class with cell-count check | migration relative to mock | nuclei per well, duplicate mean | outcome |
| --- | --- | --- | --- | --- | --- | --- |
| TRDN (triadin) | 1 | 0.24 | migration z between -2 and 2; enough cells | 0.94 | 5284 | inactive |
| CHST14 (carbohydrate sulfotransferase 14) | 1 | -1.69 | migration z between -2 and 2; enough cells | 0.48 | 4286 | inactive |
| RHPN1 (rhophilin Rho GTPase binding protein 1) | 1 | 0.18 | migration z between -2 and 2; enough cells | 0.93 | 5954 | inactive |
| GRAMD2A (GRAM domain containing 2A) | 1 | 0.78 | migration z between -2 and 2; enough cells | 1.08 | 7284 | inactive |
